{"sequences": {"note": "Amino acid sequences for entries named in this document (tags omitted).", "UniProt Q14790": "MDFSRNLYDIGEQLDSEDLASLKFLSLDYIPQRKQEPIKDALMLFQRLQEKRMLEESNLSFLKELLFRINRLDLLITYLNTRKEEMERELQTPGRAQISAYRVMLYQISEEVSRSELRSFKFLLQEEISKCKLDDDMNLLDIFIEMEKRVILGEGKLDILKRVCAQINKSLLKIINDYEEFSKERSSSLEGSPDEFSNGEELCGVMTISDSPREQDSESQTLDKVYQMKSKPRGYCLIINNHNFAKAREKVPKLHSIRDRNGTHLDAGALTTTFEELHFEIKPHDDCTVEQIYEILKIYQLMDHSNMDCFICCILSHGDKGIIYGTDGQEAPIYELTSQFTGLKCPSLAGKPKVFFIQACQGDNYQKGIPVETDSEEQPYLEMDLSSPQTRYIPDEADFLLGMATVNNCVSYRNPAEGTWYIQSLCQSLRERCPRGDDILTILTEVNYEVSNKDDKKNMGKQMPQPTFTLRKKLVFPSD", "UniProt P50750": "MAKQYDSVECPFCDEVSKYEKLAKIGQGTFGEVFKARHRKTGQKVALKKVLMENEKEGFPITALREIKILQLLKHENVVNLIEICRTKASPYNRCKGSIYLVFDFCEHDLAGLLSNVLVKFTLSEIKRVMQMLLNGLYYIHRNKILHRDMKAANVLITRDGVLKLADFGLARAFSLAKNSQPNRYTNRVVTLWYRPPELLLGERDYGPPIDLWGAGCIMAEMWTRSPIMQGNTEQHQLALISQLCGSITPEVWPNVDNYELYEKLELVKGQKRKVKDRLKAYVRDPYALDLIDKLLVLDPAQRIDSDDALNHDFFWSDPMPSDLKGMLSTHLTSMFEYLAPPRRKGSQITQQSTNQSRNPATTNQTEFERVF"}, "source": "paper PMC9674771", "biological_target": "Caspase-8 (endogenous) (human (endogenous in HeLa and SiHa)) (UniProt Q14790)", "test": "affinity purification with mass spectrometry; Caspase-8 immunoprecipitated from non-synchronized and S/G2-phase synchronized HeLa WT cells; co-IP run on a 12% SDS-PAGE gel, LC-MS; negative controls were the IP from HeLa KO cells and IgG", "note": "No constants are given. Whether binding was seen depends on the method and setting. Binding seen in cells or lysates may run through a third protein. Here binding means that the protein was enriched with, or labelled near, the bait; the list need not be complete.", "data": [{"substance": "CDK9 (endogenous) (from UniProt P50750 1-372)", "values": [{"measurement": "binding", "value": "binds"}]}]}
